# The other results are listed elsewhere or left out.
# Compound: Cc1cc(ccc1-c1ccccc1)C(=O)N1CCCN(CC1)C(=O)CCl [compound 10]
# Test: probe-labelled cysteine peptide fold change vs DMSO (competition) (log2 fold change); higher = less target engagement (more negative = stronger competition)
# Conditions: 50 µM; THP-1; incubation time: 4 h
# 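Also: competitive profiling in live THP-1 cells: cysteine peptides tagged with an iodoacetamide desthiobiotin (IA-DTB) probe, intensity after compound treatment relative to DMSO-treated cells.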
row,Target,probe-labelled cysteine peptide fold change
1,INTS13_Q9NVM9_406_SILEDPPSISEGCGGR (UniProt Q9NVM9),0.0765
2,IRF3_Q14653_267_HVLSCLGGGLALWR (UniProt Q14653),0.209
3,IRF2BP2_Q7Z5L9_521_LEDTHFVQCPSVPSHK (UniProt Q7Z5L9),-0.0429
4,IPO7_O95373_736_VLTGVAGEDAECHAAK (UniProt O95373),0.238
5,INTS14_Q96SY0_218_CGHLTADVQVFPRPEPFVVDEEIDPIPK (UniProt Q96SY0),0.138
6,IQGAP1_P46940_57_WMEACLGEDLPPTTELEEGLR (UniProt P46940),0.0173
7,IRF2BP2_Q7Z5L9_509_EVGGQGAGNTGGLEPVHPASLPDSSLATSAPLCCTLCHER (UniProt Q7Z5L9),-0.221
8,ITGB1_P05556_75_GCPPDDIENPR (UniProt P05556),-0.289
9,ITGB1_P05556_64_CDDLEALK (UniProt P05556),-0.196
10,INTS11_Q5TA45_542_DHCVQHLPDGSVTVESVLLQAAAPSEDPGTK (UniProt Q5TA45),-0.115
11,ITGB2_P05107_445_ALGFTDIVTVQVLPQCECR (UniProt P05107),0.0559
12,ITGB1_P05556_500_HCECSTDEVNSEDMDAYCR (UniProt P05556),-0.251
13,ITGB1_P05556_618_GICECGVCK (UniProt P05556),0.0123
14,ITGAM_P11215_654_VCLHVQK (UniProt P11215),0.0983
15,INTS10_Q9NVR2_387_TMSSDDEDCSAK (UniProt Q9NVR2),-0.701
16,IP6K2_Q9UHH9_104_GDHGIVDIVDNSDCEPK (UniProt Q9UHH9),0.801
17,ITGB1_P05556_691_DKLPQPVQPDPVSHCK (UniProt P05556),-0.288
18,IRF2BPL_Q9H1B7_385_DTLLTLAGCTPYEVR (UniProt Q9H1B7),0.244
19,IQGAP3_Q86VI3_1254_ACQVPEPEER (UniProt Q86VI3),0.0621
20,ITGA7_Q13683_539+546_SIDLEQPNCAGGHSVCVDLR (UniProt Q13683),-0.659

# Some of the entries so far, tab-delimited.
row	Target	probe-labelled cysteine peptide fold change
4	IPO7_O95373_736_VLTGVAGEDAECHAAK (UniProt O95373)	0.238
6	IQGAP1_P46940_57_WMEACLGEDLPPTTELEEGLR (UniProt P46940)	0.0173
7	IRF2BP2_Q7Z5L9_509_EVGGQGAGNTGGLEPVHPASLPDSSLATSAPLCCTLCHER (UniProt Q7Z5L9)	-0.221
9	ITGB1_P05556_64_CDDLEALK (UniProt P05556)	-0.196
10	INTS11_Q5TA45_542_DHCVQHLPDGSVTVESVLLQAAAPSEDPGTK (UniProt Q5TA45)	-0.115
11	ITGB2_P05107_445_ALGFTDIVTVQVLPQCECR (UniProt P05107)	0.0559
12	ITGB1_P05556_500_HCECSTDEVNSEDMDAYCR (UniProt P05556)	-0.251
18	IRF2BPL_Q9H1B7_385_DTLLTLAGCTPYEVR (UniProt Q9H1B7)	0.244
19	IQGAP3_Q86VI3_1254_ACQVPEPEER (UniProt Q86VI3)	0.0621
20	ITGA7_Q13683_539+546_SIDLEQPNCAGGHSVCVDLR (UniProt Q13683)	-0.659

# Next results follow:

row,Target,probe-labelled cysteine peptide fold change
1,ITGAV_P06756_97_CQPIEFDATGNR (UniProt P06756),0.262
2,IPO7_O95373_504_CLIDDREMPVK (UniProt O95373),-0.368
3,IRF2BP1_Q8IU81_518_ERLEDTHFVQCPSVPGHK (UniProt Q8IU81),-0.399
4,IRF2BP1_Q8IU81_207_NADCLAELNEAMR (UniProt Q8IU81),-0.534
5,ITGB2_P05107_467_GFLECGICR (UniProt P05107),0.221
6,IRF2BP2_Q7Z5L9_19_QSCYLCDLPR (UniProt Q7Z5L9),-0.0298
7,ITGA5_P08648_921_CELGPLHQQESQSLQLHFR (UniProt P08648),-0.00646
8,ITGAM_P11215_144_GCPQEDSDIAFLIDGSGSIIPHDFR (UniProt P11215),0.732
9,IQGAP1_P46940_57_RWMEACLGEDLPPTTELEEGLR (UniProt P46940),0.0214
10,INTS13_Q9NVM9_556_VLECLMACR (UniProt Q9NVM9),-0.149
11,IPO4_Q8TEX9_350_LCPQLMPMLEEALR (UniProt Q8TEX9),-0.384
12,IREB2_P48200_604_QGDLVTCGILSGNK (UniProt P48200),0.162
13,INTS8_Q75QN2_42_KPCPDPAPVQLIVQFLEQASKPSVNEQNQVQPPPDNKR (UniProt Q75QN2),0.143
14,ISG20L2_Q9H9L3_295_KADCPENATMSLK (UniProt Q9H9L3),-0.0204
15,IQGAP3_Q86VI3_74_LGHCFAPSVVPLK (UniProt Q86VI3),0.0396
16,ITPK1_Q13572_126_KIEAYMEDDRICSPPFMELTSLCGDDTMR (UniProt Q13572),-0.196
17,IPO9_Q96P70_90_QYVETHWCAQSEK (UniProt Q96P70),0.0337
18,ITGB2_P05107_73_GCAADDIMDPTSLAETQEDHNGGQK (UniProt P05107),0.0533
19,INTS1_Q8N201_1534_SGEQCSVEPDLISK (UniProt Q8N201),0.0044

# From the supplement of paper PMC12067093, “Discovery and optimisation of a covalent ligand for TRIM25 and its application to targeted protein ubiquitination” (Chemical Science, 2025)
